Measurements: patent US20240141027A1
Results are given in words; binding and its absence hold for the method and conditions named. Some results given as binding are weak or reduced against the parent protein; the word gives no strength.

Molecular target: recombinant Aβ1-42
Experiment: indirect ELISA, plates coated with recombinant Aβ1-42

binding: binds
B1: mAb158 IgG (antibody, V domains shown)
VH: EVKLMESGGGLVQPGGSRKLSCAASGFTFSSFGMHWVRQAPEKGLEWVAYISSGSSTIYYGDTVKGRFTISRDNPKNTLFLQMTSLRSEDTAMYYCAREGGYYYGRSYYTMDYWGQGTSVTVSS
VL: DIVMTQAPLSLPVSLGDQASISCRSSQSIVHSNGNTYLEWYLQKPGQSPKLLIYKVSNRFSGVPDRFSGSGSGTDFTLKISRVEAEDLGIYYCFQGSHVPPTFGGGTKLEIKR
